Source: doi:10.1371/journal.pone.0140310, primary screening data, rounded.

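The test systems are human melanoma cell lines, treated with a pair of drugs for 72 h and then stained and imaged. The read-out is cell count (nuclei) in % of the DMSO control; lower values mean stronger growth inhibition or killing. Concentrations were fixed for each drug; these are the higher of two levels. No replicate spread is given; individual values may be noisy.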
Only some of the drugs and lines screened are listed, without regard to their results.

Drugs:
A-769662 (10000 nM): N#Cc1c(O)c2c(-c3ccc(-c4ccccc4O)cc3)csc2[nH]c1=O
LFM-A13 (10000 nM): C/C(O)=C(\C#N)C(=O)Nc1cc(Br)ccc1Br
YM155 (2 nM): COCC[n+]1c2c(n(Cc3cnccn3)c1C)C(=O)c1ccccc1C2=O
decitabine (500 nM): Nc1ncn([C@H]2C[C@H](O)[C@@H](CO)O2)c(=O)n1
MK-2206 (2000 nM): NC1(c2ccc(-c3nc4ccn5c(=O)[nH]nc5c4cc3-c3ccccc3)cc2)CCC1
vatalanib (10000 nM): Clc1ccc(Nc2nnc(Cc3ccncc3)c3ccccc23)cc1
etoposide (100 nM): COc1cc([C@@H]2c3cc4c(cc3[C@@H](O[C@@H]3O[C@@H]5CO[C@@H](C)O[C@H]5[C@H](O)[C@H]3O)[C@H]3COC(=O)[C@H]23)OCO4)cc(OC)c1O
T0901317 (7000 nM): O=S(=O)(c1ccccc1)N(CC(F)(F)F)c1ccc(C(O)(C(F)(F)F)C(F)(F)F)cc1
midostaurin (400 nM): CO[C@@H]1[C@H](N(C)C(=O)c2ccccc2)C[C@H]2O[C@]1(C)n1c3ccccc3c3c4c(c5c6ccccc6n2c5c31)C(=O)NC4
lapatinib (4000 nM): CS(=O)(=O)CCNCc1ccc(-c2ccc3ncnc(Nc4ccc(OCc5cccc(F)c5)c(Cl)c4)c3c2)o1
stibogluconate (10000 nM): O=C(O)[C@@H]1[O][Sb](=[O])([O][Sb]2(=[O])[O][C@H]([C@H](O)CO)[C@H](O)[C@H](C(=O)O)[O]2)[O][C@H]([C@H](O)CO)[C@@H]1O (stereo partly drawn)

decitabine and YM155 gave COLO 792: 53.5; C32: 117; WM3619: 76.7; COLO 800: 29.3; COLO 829: 62.2; WM451Lu: 17.5. Results for MK-2206 and vatalanib are COLO 792: 26.7; C32: 69.3; WM3619: 59.3; COLO 800: 78.2; COLO 829: 54.4; WM451Lu: 66.8. YM155 and T0901317 gave COLO 792: 75.9; C32: 96.1; WM3619: 86.8; COLO 800: 38.8; COLO 829: 74.2; WM451Lu: 62.6. T0901317 and decitabine gave COLO 792: 94.6; C32: 89.1; WM3619: 91.6; COLO 800: 92.8; COLO 829: 59.9; WM451Lu: 76.9. For MK-2206 and A-769662 the values were COLO 792: 50.6; C32: 89.5; WM3619: 90.5; COLO 800: 56.3; COLO 829: 69.2; WM451Lu: 93.0.

Results for stibogluconate and MK-2206 are COLO 792: 82.3; C32: 84.4; WM3619: 86.2; COLO 800: 135; COLO 829: 106; WM451Lu: 95.7. With LFM-A13 and stibogluconate the screen read COLO 792: 132; C32: 120; WM3619: 110; COLO 800: 107; COLO 829: 90.1; WM451Lu: 104. For T0901317 and vatalanib the values were COLO 792: 89.2; C32: 86.3; WM3619: 57.1; COLO 800: 75.6; COLO 829: 59.3; WM451Lu: 74.6. With decitabine and LFM-A13 the screen read COLO 792: 77.3; C32: 88.3; WM3619: 84.3; COLO 800: 73.2; COLO 829: 61.8; WM451Lu: 71.3. Results for lapatinib and A-769662 are COLO 792: 85.5; C32: 100; WM3619: 66.3; COLO 800: 79.7; COLO 829: 73.5; WM451Lu: 90.5.

etoposide and LFM-A13 gave COLO 792: 105; C32: 81.0; WM3619: 52.6; COLO 800: 75.4; COLO 829: 98.0; WM451Lu: 107. LFM-A13 and YM155 gave COLO 792: 68.8; C32: 101; WM3619: 98.5; COLO 800: 88.0; COLO 829: 82.5; WM451Lu: 50.1. For stibogluconate and T0901317 the values were COLO 792: 103; C32: 97.0; WM3619: 97.2; COLO 800: 66.0; COLO 829: 84.7; WM451Lu: 87.9. vatalanib and decitabine gave COLO 792: 51.4; C32: 102; WM3619: 39.7; COLO 800: 46.0; COLO 829: 41.9; WM451Lu: 63.0. Results for A-769662 and stibogluconate are COLO 792: 111; C32: 103; WM3619: 87.0; COLO 800: 129; COLO 829: 139; WM451Lu: 109.

YM155 and A-769662 gave COLO 792: 80.1; C32: 107; WM3619: 102; COLO 800: 54.4; COLO 829: 102; WM451Lu: 52.7. stibogluconate and midostaurin gave COLO 792: 42.9; C32: 63.6; WM3619: 63.3; COLO 800: 29.9; COLO 829: 61.9; WM451Lu: 66.6. A-769662 and vatalanib gave COLO 792: 77.6; C32: 113; WM3619: 72.3; COLO 800: 82.2; COLO 829: 75.0; WM451Lu: 106. Results for lapatinib and midostaurin are COLO 792: 46.8; C32: 87.1; WM3619: 79.5; COLO 800: 33.0; COLO 829: 65.3; WM451Lu: 58.9. Results for lapatinib and vatalanib are COLO 792: 33.1; C32: 91.7; WM3619: 61.6; COLO 800: 51.3; COLO 829: 61.0; WM451Lu: 69.7.

Results for T0901317 and lapatinib are COLO 792: 58.7; C32: 76.8; WM3619: 61.9; COLO 800: 56.3; COLO 829: 51.6; WM451Lu: 103. Results for midostaurin and vatalanib are COLO 792: 44.4; C32: 60.9; WM3619: 41.5; COLO 800: 13.4; COLO 829: 34.8; WM451Lu: 57.8. T0901317 and midostaurin gave COLO 792: 55.9; C32: 69.5; WM3619: 58.1; COLO 800: 29.5; COLO 829: 53.2; WM451Lu: 47.6. YM155 and midostaurin gave COLO 792: 29.2; C32: 83.7; WM3619: 75.2; COLO 800: 19.1; COLO 829: 51.0; WM451Lu: 37.3. For MK-2206 and etoposide the values were COLO 792: 55.9; C32: 67.8; WM3619: 49.9; COLO 800: 53.0; COLO 829: 90.3; WM451Lu: 90.0.

Results for MK-2206 and decitabine are COLO 792: 48.6; C32: 89.9; WM3619: 85.7; COLO 800: 80.0; COLO 829: 58.2; WM451Lu: 84.9. With vatalanib and etoposide the screen read COLO 792: 62.7; C32: 102; WM3619: 72.4; COLO 800: 98.8; COLO 829: 46.6; WM451Lu: 72.9. With vatalanib and stibogluconate the screen read COLO 792: 73.5; C32: 92.2; WM3619: 81.1; COLO 800: 68.2; COLO 829: 78.9; WM451Lu: 81.5. Results for LFM-A13 and vatalanib are COLO 792: 68.8; C32: 101; WM3619: 73.7; COLO 800: 58.4; COLO 829: 78.2; WM451Lu: 79.7. Results for stibogluconate and lapatinib are COLO 792: 99.9; C32: 79.8; WM3619: 72.0; COLO 800: 34.0; COLO 829: 93.4; WM451Lu: 81.7.

For lapatinib and etoposide the values were COLO 792: 76.6; C32: 62.5; WM3619: 93.2; COLO 800: 51.4; COLO 829: 81.5; WM451Lu: 80.7. For A-769662 and midostaurin the values were COLO 792: 85.5; C32: 81.3; WM3619: 68.3; COLO 800: 69.7; COLO 829: 73.1; WM451Lu: 73.8. lapatinib and MK-2206 gave COLO 792: 39.2; C32: 58.8; WM3619: 5.9; COLO 800: 35.8; COLO 829: 77.4; WM451Lu: 69.8. For lapatinib and decitabine the values were COLO 792: 77.2; C32: 85.6; WM3619: 68.6; COLO 800: 94.4; COLO 829: 52.3; WM451Lu: 91.8. For decitabine and midostaurin the values were COLO 792: 44.2; C32: 79.5; WM3619: 64.3; COLO 800: 18.1; COLO 829: 58.4; WM451Lu: 69.8.

A-769662 and decitabine gave COLO 792: 78.2; C32: 95.0; WM3619: 72.6; COLO 800: 97.2; COLO 829: 81.8; WM451Lu: 106. LFM-A13 and T0901317 gave COLO 792: 101; C32: 106; WM3619: 108; COLO 800: 72.1; COLO 829: 96.1; WM451Lu: 102. For LFM-A13 and midostaurin the values were COLO 792: 69.9; C32: 77.9; WM3619: 66.2; COLO 800: 29.1; COLO 829: 77.2; WM451Lu: 69.6. For LFM-A13 and lapatinib the values were COLO 792: 71.7; C32: 102; WM3619: 78.8; COLO 800: 63.9; COLO 829: 69.1; WM451Lu: 95.6. For MK-2206 and T0901317 the values were COLO 792: 45.3; C32: 82.2; WM3619: 53.5; COLO 800: 88.0; COLO 829: 75.8; WM451Lu: 102.

The last 5 entries again:

Combination	COLO 792	C32	WM3619	COLO 800	COLO 829	WM451Lu
A-769662 and decitabine	78.2	95.0	72.6	97.2	81.8	106
LFM-A13 and T0901317	101	106	108	72.1	96.1	102
LFM-A13 and midostaurin	69.9	77.9	66.2	29.1	77.2	69.6
LFM-A13 and lapatinib	71.7	102	78.8	63.9	69.1	95.6
MK-2206 and T0901317	45.3	82.2	53.5	88.0	75.8	102